Test results from patent US20170177834A1, “NANOMEDICINE OPTIMIZATION WITH FEEDBACK SYSTEM CONTROL” (THE REGENTS OF THE UNIVERSITY OF CALIFORNIA, priority 2014, published 2017).
Some results were stated once for a whole list of compounds, not compound by compound.

Test system: MDA-MB-231 (cancer) and MCF10A (control) cells
Test: Therapeutic window (control minus cancer cell viability), resazurin assay, MCF10A versus MDA-MB-231
Assay type: cell-based, human
Settings: single drug administration at optimal dosage; cell pair not stated in b110 (FIG. 7: MCF10A vs MDA-MB-231)

COc1cccc2c1C(=O)c1c(O)c3c(c(O)c1C2=O)C[C@@](O)(C(=O)CO)C[C@@H]3O[C@H]1C[C@H](N)[C@H](O)[C@H](C)O1 [DOX, Doxorubicin]
therapeutic window of single drug: less than 10%

O=C1c2c(O)ccc(O)c2C(=O)c2c(NCCNCCO)ccc(NCCNCCO)c21 [MTX, Mitoxantrone]
therapeutic window of single drug: less than 10%
